Assay results reported in paper PMC7594305.
Results are given in words; binding and its absence hold for the method and conditions named. In cells and extracts the contact can be indirect. Some entries that bind do so weakly or less than the wild type.

Chains of the proteins cited; added tags and fusions are not shown.
UniProt P23242: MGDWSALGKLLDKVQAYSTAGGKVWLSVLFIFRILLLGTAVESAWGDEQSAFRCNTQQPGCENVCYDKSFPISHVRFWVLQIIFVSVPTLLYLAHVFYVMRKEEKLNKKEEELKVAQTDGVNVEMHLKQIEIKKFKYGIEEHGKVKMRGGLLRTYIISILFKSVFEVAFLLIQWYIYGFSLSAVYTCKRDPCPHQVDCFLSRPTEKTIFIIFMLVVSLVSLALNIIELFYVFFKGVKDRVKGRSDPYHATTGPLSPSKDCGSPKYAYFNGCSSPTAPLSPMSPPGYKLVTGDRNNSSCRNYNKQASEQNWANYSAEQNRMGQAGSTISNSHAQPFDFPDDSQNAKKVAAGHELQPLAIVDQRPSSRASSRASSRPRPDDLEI
UniProt P46938: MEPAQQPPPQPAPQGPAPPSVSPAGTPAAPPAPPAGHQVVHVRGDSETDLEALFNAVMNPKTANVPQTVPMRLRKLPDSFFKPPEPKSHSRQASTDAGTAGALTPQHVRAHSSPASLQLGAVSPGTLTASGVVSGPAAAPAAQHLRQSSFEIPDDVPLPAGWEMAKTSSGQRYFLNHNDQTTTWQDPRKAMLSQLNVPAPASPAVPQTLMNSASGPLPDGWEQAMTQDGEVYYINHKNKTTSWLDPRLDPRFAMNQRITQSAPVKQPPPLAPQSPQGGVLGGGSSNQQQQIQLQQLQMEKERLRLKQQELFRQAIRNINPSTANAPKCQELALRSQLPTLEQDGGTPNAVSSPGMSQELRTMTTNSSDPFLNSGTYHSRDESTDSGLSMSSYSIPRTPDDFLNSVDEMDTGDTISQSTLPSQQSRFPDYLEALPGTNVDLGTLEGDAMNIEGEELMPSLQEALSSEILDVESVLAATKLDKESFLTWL

What was measured:
[1] = target: connexin 43 (mouse (endogenous in primary astrocytes)) (UniProt P23242); assay: co-IP; cytoplasmic proteins of hemin-stimulated primary astrocytes; anti-Cx43 or anti-YAP antibody overnight at 4 °C, protein A agarose; Western blot; with or without Gap19 treatment of the cells
[2] = target: connexin 43 (mouse (endogenous in primary astrocytes)) (UniProt P23242); assay: proximity ligation; Duolink in situ PLA on astrocytes on glass slides, anti-YAP and anti-Cx43 primary antibodies; hemin stimulation, Lv-Cx43 overexpression, with or without Gap19 treatment
[3] = target: Cx43 overexpressed by lentiviral vector (Lv-Cx43) (UniProt P23242); assay: as above

binding [1]: binds | binding [2]: binds | binding [3]: binds
Substance: Yes-associated protein (from UniProt P46938 1-488)
